PubChem BioAssay AID493014 (National Center for Advancing Translational Sciences (NCATS), 2011)
Several values for one entry are separate records, joined by “and”; a condition that tells them apart may be missing. Identical values can stand only once. Among all 340,000 compounds or so, about 170 (0.05%) were called active. The shares of active, inactive and inconclusive entries below differ from those in the screen. Calls come from the whole dose curve; as a rule, active = well fitted inhibition curve with a large enough effect in the signal ratio, with a control signal flat (not every such curve was filed as active); inconclusive = small, poorly fitted or top-dose-only effect, or effect the other way, or a change in a side signal; inactive = flat fitted curve, though single readings scatter; the % refers to the signal ratio. Potencies of inconclusive entries are doubtful fits and often do not repeat.

Test: qHTS Assay to Find Inhibitors of Chronic Active B-Cell Receptor Signaling;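 for activity change, negative = inhibition: plate controls were basal doxycycline-induced cells for no effect and cells given 10 µM MG132 for full effect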
Details: ABC-DLBCL IkBa-CBG/CBR reporter, luminescence ratio (green luciferase fused to IkBa over red control in TMD8 lymphoma cells), 4 h; activity change, negative = inhibition: at 46.1 µM (top of the series) unless noted
How it was run: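 TMD8 ABC-DLBCL cells carrying doxycycline-inducible green luciferase fused to IkappaBalpha plus unfused red luciferase were exposed to compounds (up to 46 uM) for 4 hrs at 37C. Activity came from the overlap-corrected green/red luminescence ratio.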
Potency is the fitted concentration of half-maximal effect.

| Compound | activity change, negative = inhibition | Potency |
| --- | --- | --- |
| Cc1nn(-c2ccccc2)c(C)c1/C=N/NC(=O)CSc1nnc(SCc2ccc(Cl)cc2)s1 | inconclusive: -1.36% |  |
| COc1ccccc1C1C=C(c2ccccc2)Nc2nnnn21 (stereo unspecified) |  | inconclusive: 20.6 µM [falling, single point] |
| CC1=CCC2C(=O)N(c3cccc(C(=O)NCc4ccccc4)c3)C(=O)C2C1 (stereo unspecified) | inconclusive: 2.15% |  |
| Cc1ccc(C(=O)Nc2nnc(C3CCCCC3)s2)o1 |  | inconclusive: 18.4 µM [falling, partial curve] |
| Cc1c(CCOC(=O)CC23CC4CC(CC(C)(C4)C2)C3)sc[n+]1Cc1ccc([N+](=O)[O-])cc1 | inconclusive: -26.2% |  |
| CCOc1ccc(NC(=O)NCc2cccn2C)cc1 | inconclusive: -21.1% |  |
| COC(=O)C1=C(C)N(Cc2ccccc2)C(=S)N[C@H]1c1ccc(Br)cc1 | inconclusive: 10.6% and inconclusive: -1.85% |  |
| COc1ccc(NC(=O)CN(c2ccc([N+](=O)[O-])cc2)S(=O)(=O)c2ccccc2)cc1 | inconclusive: 7.69% |  |
| CCOc1ccc(/C=C2/SC(=S)N(C(C(=O)O)c3ccccc3)C2=O)cc1OCC (stereo unspecified) | inconclusive: 2.57% |  |
| Cc1cc(NC2CCCCC2)nc(N2CCOCC2)n1 | inactive: -3.09% |  |
| COCc1ccc(C(=O)NC2CCCc3c2cnn3-c2cc(C)cc(C)c2)s1 (stereo unspecified) | inconclusive: 12% |  |
| COc1ccccc1C(=O)NCC(c1ccco1)N1CCc2ccccc21 (stereo unspecified) | inconclusive: 19.1% |  |
| O=C(Nc1ccccc1F)c1oc2ccccc2c1NC(=O)C1CC1 | inconclusive: 1.14% |  |
| c1ccc(Cc2nc(-c3ccccn3)no2)cc1 | inactive: -12.4% |  |
| Cc1cc(Nc2cnc3ccccc3n2)n(-c2ccccc2)n1 |  | inconclusive: 11.2 µM [falling, partial curve] |
| COC(=O)c1ccc(NC(=O)c2ccccc2SC)cc1 |  | inconclusive: 12.6 µM [falling, partial curve] |
| O=C(Nc1nccs1)c1cc2c(s1)CCCCC2 |  | inconclusive: 2.31 µM [falling, partial curve] |
| CC(=O)Nc1ccc(C(=O)OCC(=O)Nc2c(F)cccc2F)cc1 | inconclusive: 0.359% |  |
| CCCNC(=O)Nc1ccc2c(c1)N(C)C(=O)c1ccccc1S2 | inactive: -7% |  |
| COc1ccccc1C(CC(=O)Nc1ccc(Cl)cc1)c1ccc(OC(C)C)cc1 (stereo unspecified) | inactive: 10.4% |  |
| Cc1n[nH]c(C)c1S(=O)(=O)NCCc1ccc(Cl)cc1 | inconclusive: -9.71% |  |

| Compound | activity change, negative = inhibition | Potency |
| --- | --- | --- |
| COc1ccc(/C(C)=N/Nc2ccc(C(=O)O)cc2)c(OC)c1 |  | inconclusive: 0.0058 µM [rising, full curve] |
| O=C(Nc1ccc2c(c1)oc1ccc(S(=O)(=O)N3CCCC3)cc12)C1CC1 |  | inconclusive: 23.1 µM [falling, partial curve, poor fit] |
| CCSc1nnc(NC(=O)COc2ccccc2)s1 |  | inconclusive: 29.1 µM [falling, single point] |
| CC[C@]12c3[nH]c4ccccc4c3CCN1C(=O)C(CC(=O)NCc1ccc(OC)c(OC)c1)C[C@@H]2C(=O)N1CCN(C(=O)C2CC2)CC1 (stereo partly specified) | inconclusive: -7.88% |  |
| COc1ccc(/C=C2\Oc3cc(OCC(=O)N4CC(O)C[C@H]4C(=O)O)ccc3C2=O)cc1OC (stereo partly specified) | inconclusive: 5.98% |  |
| COc1ccc(CN2CCNC(=O)C2CC(=O)N2CCCN(C(C)=O)CC2)cc1OC (stereo unspecified) | inactive: 2.23% |  |
| CCOc1cccc(C2NC(=S)NC(C)=C2C(=O)Nc2ccccc2)c1 (stereo unspecified) | inactive: -0.0661% |  |
| N#Cc1c(N)oc(-c2cccs2)c1-c1cccs1 | inconclusive: 3.22% |  |
| CC1=NN(c2ccccc2)C(=O)C1N=Nc1ccccc1 (stereo unspecified) | inactive: -0.659% |  |
| O=C(COc1cccc2cccnc12)N/N=C/c1ccccc1O |  | inconclusive: 35.5 µM [falling, single point] |
| CCn1nc(C)c(CN2CCc3c([nH]c4ccccc34)C2c2ccc(F)c(OC)c2)c1C (stereo unspecified) |  | inconclusive: 22.4 µM [falling, single point] |
| CN(Cc1ccccc1)S(=O)(=O)c1ccc2c(c1)OCCO2 | inconclusive: 1.2% |  |
| N#C[C@@H]1N(Cc2ccccc2)C(=O)[C@H]2CC3C=CC21O3 (stereo partly specified) | inactive: -5.59% |  |
| COc1cccc(/C=C2\N=C3CCCCCN3C2=O)c1 |  | inconclusive: 18.4 µM [falling, single point] |
| COc1ccc(NC(=O)COC(=O)CCC2CCCC2)c(OC)c1 | inactive: -1.48% |  |
| COc1cccc(CNC(=O)[C@@H](C)N2C(=O)N3CCc4c([nH]c5ccc(OC)cc45)C3(C)C2=O)c1 (stereo partly specified) | inconclusive: -15.2% |  |
| Cc1ccc(Oc2ccc(NC(=O)C3=CC=CN4CCS(=O)(=O)N=C34)cc2)cc1 | inconclusive: 2.94% |  |
| O=C(OCC(=O)N1CCCC1=O)C1COc2ccccc2O1 (stereo unspecified) | inactive: -0.211% |  |
| C[C@@]12C(=O)Nc3ccc(Cl)cc3C(=O)N1[C@H]1c3ccccc3OC[C@@H]1[C@@H]2c1ccccc1 | inconclusive: 19.5% |  |
| CC(C)(C)c1ccc(Oc2ccc(NC(=O)c3cccs3)cn2)cc1 | inconclusive: -13.5% |  |
